# Source: the supplement of paper PMC12823440, “Inhibitors supercharge kinase turnover through native proteolytic circuits” (Nature, 2025)
# Protein sequences, listed by entry. Tags and fused reporters are not part of them. Lines headed by an entry give the natural chain unless they say otherwise; changes in a name come on top.
# UniProt Q15208: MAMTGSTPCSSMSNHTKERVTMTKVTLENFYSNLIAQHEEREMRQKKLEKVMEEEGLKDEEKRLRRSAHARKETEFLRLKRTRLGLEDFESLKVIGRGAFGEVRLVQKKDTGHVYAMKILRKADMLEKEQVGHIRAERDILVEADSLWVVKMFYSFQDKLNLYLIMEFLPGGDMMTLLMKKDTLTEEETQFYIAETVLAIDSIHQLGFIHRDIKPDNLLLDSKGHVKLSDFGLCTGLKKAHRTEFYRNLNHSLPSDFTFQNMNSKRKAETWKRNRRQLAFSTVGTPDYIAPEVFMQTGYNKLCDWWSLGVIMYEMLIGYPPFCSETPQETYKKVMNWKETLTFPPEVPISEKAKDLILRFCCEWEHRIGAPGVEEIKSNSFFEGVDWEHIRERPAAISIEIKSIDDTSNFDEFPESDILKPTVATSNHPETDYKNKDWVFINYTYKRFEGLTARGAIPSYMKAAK
# UniProt P42680: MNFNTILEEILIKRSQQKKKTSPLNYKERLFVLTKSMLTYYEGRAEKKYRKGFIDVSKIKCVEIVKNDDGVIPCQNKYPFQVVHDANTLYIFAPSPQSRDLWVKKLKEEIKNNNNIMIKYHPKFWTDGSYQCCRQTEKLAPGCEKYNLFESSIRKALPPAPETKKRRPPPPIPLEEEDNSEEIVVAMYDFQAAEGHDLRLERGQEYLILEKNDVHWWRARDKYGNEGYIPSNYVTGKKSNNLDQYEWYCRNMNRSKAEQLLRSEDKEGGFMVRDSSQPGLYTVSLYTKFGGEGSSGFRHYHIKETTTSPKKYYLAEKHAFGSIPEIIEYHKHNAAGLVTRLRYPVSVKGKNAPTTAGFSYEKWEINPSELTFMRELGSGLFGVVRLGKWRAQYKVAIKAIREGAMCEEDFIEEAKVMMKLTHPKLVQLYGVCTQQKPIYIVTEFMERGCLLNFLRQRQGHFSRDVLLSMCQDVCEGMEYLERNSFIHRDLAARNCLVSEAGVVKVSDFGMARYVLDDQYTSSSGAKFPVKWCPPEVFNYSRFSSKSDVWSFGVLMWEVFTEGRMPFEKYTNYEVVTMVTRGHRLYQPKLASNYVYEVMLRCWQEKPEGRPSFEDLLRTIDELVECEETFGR
# UniProt P29597: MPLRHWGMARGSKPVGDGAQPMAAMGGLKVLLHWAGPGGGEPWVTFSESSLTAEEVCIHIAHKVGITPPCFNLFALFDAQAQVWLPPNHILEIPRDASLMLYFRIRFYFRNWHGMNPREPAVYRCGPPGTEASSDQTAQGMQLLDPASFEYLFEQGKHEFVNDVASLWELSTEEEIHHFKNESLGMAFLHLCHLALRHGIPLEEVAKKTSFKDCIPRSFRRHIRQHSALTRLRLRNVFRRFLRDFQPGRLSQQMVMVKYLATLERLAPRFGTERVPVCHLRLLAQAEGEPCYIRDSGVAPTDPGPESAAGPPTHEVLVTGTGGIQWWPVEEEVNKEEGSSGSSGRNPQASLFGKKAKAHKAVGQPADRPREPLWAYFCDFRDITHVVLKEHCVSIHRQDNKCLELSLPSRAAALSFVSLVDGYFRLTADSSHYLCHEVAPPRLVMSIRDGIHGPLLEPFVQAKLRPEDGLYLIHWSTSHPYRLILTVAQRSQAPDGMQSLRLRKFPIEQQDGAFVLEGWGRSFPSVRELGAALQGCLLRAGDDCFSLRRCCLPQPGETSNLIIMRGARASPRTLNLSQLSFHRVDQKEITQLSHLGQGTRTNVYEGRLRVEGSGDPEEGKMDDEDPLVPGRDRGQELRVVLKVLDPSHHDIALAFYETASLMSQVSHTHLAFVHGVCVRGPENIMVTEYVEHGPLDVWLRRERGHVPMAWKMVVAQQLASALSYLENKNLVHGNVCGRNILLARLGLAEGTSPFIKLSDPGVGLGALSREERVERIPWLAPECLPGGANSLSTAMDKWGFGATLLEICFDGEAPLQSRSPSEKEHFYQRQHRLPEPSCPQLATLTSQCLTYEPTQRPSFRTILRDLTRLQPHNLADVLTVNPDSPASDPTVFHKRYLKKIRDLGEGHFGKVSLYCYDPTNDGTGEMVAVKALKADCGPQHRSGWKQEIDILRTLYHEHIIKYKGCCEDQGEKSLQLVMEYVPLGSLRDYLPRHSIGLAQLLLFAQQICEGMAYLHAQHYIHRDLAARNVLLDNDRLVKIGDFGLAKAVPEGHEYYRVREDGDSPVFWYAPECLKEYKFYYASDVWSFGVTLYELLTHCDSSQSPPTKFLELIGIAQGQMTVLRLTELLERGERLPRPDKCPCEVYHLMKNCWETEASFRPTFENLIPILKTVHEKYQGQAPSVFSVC
# UniProt P07947, whole entry, looked up: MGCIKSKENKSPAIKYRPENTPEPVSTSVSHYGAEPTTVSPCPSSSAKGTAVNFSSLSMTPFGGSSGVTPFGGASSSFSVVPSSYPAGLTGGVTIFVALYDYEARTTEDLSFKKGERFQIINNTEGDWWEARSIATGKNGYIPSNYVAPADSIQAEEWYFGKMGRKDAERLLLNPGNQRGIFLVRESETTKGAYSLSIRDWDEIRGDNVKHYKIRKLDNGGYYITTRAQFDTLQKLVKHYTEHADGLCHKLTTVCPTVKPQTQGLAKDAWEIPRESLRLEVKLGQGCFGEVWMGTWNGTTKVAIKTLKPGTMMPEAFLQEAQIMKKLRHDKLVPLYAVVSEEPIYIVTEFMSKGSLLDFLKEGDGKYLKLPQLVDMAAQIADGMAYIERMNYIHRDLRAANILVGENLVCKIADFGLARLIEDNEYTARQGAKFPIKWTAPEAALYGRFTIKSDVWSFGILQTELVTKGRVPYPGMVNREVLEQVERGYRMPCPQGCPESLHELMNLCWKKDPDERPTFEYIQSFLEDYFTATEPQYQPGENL
# UniProt P31749: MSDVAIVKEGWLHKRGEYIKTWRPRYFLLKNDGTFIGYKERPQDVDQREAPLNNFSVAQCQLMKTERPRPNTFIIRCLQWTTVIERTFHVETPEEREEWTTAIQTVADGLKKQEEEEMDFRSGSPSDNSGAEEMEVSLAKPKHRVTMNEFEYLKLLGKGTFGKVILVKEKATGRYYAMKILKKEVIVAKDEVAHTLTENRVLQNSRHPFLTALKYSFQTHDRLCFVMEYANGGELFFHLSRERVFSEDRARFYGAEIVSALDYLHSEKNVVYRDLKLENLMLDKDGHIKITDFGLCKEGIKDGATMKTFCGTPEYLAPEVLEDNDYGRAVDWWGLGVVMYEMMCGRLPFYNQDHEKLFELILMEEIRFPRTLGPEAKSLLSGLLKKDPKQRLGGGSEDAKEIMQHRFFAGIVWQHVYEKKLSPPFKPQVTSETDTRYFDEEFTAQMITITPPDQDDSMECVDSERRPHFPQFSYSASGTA
# UniProt P10398: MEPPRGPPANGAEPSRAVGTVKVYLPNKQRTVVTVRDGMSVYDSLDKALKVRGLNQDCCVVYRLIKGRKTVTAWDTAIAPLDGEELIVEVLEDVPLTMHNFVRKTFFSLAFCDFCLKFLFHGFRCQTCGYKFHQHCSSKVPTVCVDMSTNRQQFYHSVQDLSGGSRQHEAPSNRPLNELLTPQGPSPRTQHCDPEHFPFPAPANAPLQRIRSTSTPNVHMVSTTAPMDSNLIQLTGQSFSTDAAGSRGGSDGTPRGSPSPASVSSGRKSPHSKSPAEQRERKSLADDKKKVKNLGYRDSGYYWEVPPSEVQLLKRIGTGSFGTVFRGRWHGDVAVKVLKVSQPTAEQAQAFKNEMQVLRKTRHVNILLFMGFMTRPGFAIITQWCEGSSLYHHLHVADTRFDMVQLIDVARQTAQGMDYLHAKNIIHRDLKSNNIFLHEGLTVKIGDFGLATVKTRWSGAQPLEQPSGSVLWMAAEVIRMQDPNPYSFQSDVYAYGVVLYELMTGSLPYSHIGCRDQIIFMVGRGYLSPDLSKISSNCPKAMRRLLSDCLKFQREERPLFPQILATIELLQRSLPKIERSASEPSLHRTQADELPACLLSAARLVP
# UniProt O14965: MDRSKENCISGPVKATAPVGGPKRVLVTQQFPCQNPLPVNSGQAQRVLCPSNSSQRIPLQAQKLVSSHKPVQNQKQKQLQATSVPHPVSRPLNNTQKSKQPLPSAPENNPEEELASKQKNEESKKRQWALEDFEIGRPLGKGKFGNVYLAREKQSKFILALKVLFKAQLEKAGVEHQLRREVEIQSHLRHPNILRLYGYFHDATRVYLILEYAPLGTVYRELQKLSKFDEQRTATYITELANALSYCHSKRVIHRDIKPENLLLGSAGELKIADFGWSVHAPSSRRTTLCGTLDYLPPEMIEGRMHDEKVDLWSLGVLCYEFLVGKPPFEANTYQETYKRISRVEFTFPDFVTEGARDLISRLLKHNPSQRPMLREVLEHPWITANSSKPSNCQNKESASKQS
# UniProt Q96GD4, whole entry: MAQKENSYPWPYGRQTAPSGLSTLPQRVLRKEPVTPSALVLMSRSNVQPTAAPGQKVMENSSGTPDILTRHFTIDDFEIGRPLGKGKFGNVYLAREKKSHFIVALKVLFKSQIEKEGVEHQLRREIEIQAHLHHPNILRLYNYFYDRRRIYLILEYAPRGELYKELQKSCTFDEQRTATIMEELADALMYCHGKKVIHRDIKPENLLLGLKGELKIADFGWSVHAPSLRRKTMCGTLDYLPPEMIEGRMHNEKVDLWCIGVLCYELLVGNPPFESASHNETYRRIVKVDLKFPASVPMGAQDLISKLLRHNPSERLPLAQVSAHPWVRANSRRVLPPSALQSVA
# UniProt Q9UQB9: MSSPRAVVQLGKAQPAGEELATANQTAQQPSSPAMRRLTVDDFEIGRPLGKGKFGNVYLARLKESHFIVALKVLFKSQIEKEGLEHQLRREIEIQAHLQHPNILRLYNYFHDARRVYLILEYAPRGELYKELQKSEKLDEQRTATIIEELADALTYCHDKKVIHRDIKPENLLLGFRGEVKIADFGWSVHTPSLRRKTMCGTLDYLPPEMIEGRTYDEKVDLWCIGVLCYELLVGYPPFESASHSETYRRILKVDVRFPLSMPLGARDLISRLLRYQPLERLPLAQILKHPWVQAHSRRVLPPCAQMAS
# UniProt P51451: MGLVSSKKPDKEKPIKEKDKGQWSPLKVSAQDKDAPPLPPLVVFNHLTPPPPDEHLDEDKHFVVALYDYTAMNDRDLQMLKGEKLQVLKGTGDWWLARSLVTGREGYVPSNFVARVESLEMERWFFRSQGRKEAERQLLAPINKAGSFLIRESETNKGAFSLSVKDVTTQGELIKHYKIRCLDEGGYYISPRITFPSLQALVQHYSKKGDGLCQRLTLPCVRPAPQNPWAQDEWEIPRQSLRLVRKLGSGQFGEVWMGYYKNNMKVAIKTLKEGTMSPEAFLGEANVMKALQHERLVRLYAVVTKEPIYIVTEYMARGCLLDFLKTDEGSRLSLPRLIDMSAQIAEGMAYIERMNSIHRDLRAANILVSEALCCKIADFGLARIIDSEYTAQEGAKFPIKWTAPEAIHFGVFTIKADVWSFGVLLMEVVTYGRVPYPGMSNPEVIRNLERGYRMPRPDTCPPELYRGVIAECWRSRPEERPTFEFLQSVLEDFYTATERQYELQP
# UniProt P51813: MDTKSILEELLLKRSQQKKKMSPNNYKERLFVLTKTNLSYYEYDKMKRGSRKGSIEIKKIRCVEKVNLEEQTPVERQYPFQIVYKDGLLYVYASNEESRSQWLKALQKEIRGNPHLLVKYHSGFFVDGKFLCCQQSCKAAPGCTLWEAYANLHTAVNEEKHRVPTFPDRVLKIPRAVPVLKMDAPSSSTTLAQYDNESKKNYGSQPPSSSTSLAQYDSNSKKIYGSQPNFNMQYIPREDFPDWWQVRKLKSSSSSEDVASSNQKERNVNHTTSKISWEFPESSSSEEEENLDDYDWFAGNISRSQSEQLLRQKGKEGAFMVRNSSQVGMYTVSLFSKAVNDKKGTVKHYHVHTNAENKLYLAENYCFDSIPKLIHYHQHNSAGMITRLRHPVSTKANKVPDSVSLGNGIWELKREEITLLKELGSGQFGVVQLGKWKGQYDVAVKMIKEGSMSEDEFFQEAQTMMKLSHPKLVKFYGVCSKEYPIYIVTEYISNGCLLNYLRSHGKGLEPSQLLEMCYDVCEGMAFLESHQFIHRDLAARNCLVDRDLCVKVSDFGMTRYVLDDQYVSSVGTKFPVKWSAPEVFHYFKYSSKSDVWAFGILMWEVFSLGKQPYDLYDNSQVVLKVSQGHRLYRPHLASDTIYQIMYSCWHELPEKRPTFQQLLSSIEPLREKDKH
# This is one part of the list. Hit calls seldom repeat between salt and free forms of one compound.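 Kinases, fused to nanoluciferase, were expressed in K562 cells; luminescence was measured every 4 h from 2 to 18 h as percent of control (DMSO = 100%, positive control = 0%). A time point is decreased if signal falls significantly (2 sigma). Hits were called by the authors by a rule that is not shown; the count of time points alone does not decide it.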
# Legend:
# Conditions in all cases: K562; 2-18 h
# STK38 = STK38 (UniProt Q15208); assay: kinase-Nluc reporter destabilization hit call (1 = scored as downregulated) (binary); higher = compound decreases kinase abundance
# SYK = SYK (UniProt P43405); assay: as above
# TEC = TEC (UniProt P42680); assay: as above
# TYK2 = TYK2 (UniProt P29597); assay: as above
# ULK3 = ULK3 (UniProt Q6PHR2); assay: as above
# YES1 = YES1 (UniProt P07947); assay: as above
# ZAK = ZAK (UniProt Q9NYL2); assay: as above
# ZAP70 = ZAP70 (UniProt P43403); assay: as above
# ABL1 = ABL1 (UniProt P00519); assay: number of time points (of 5) at which kinase-Nluc abundance scored as decreased, DMSO-normalised (count); higher = more persistent destabilization
# AKT1 = AKT1 (UniProt P31749); assay: as above
# ALK = ALK (UniProt Q9UM73); assay: as above
# ARAF = ARAF (UniProt P10398); assay: as above
# AURKA = AURKA (UniProt O14965); assay: as above
# AURKB = AURKB (UniProt Q96GD4); assay: as above
# AURKC = AURKC (UniProt Q9UQB9); assay: as above
# BLK = BLK (UniProt P51451); assay: as above
# BMX = BMX (UniProt P51813); assay: as above
# BRAF = BRAF (UniProt P15056); assay: as above
# BRAF_V600E = assay: as above
# BTK = BTK (UniProt Q06187); assay: as above
SMILES,kinase-Nluc reporter destabilization hit call (STK38),kinase-Nluc reporter destabilization hit call (SYK),kinase-Nluc reporter destabilization hit call (TEC),kinase-Nluc reporter destabilization hit call (TYK2),kinase-Nluc reporter destabilization hit call (ULK3),kinase-Nluc reporter destabilization hit call (YES1),kinase-Nluc reporter destabilization hit call (ZAK),kinase-Nluc reporter destabilization hit call (ZAP70),number of time points (ABL1),number of time points (AKT1),number of time points (ALK),number of time points (ARAF),number of time points (AURKA),number of time points (AURKB),number of time points (AURKC),number of time points (BLK),number of time points (BMX),number of time points (BRAF),number of time points (BRAF_V600E),number of time points (BTK)
N#Cc1ccc(-c2cnc3[nH]cc(NC(=O)c4cccnc4)c3c2)cc1 (10 µM),inactive: 0,inactive: 0,inactive: 0,inactive: 0,inactive: 0,inactive: 0,inactive: 0,inactive: 0,0,0,0,0,0,0,0,0,0,0,0,0
O=C(Nc1ccc(Cl)cc1)C1CCCN(C(=O)c2cc(C(F)(F)F)cc(C(F)(F)F)c2)C1 (stereo not given) (10 µM),inactive: 0,inactive: 0,inactive: 0,inactive: 0,inactive: 0,inactive: 0,inactive: 0,inactive: 0,0,0,0,0,0,0,0,0,2,1,0,0
CCc1c[nH]c2ncnc(N3CC[C@](N)(CNC(=O)c4ccc(F)cc4F)C3)c12 (10 µM),inactive: 0,inactive: 0,inactive: 0,inactive: 0,inactive: 0,inactive: 0,inactive: 0,inactive: 0,0,0,0,0,0,0,0,0,0,0,0,0
CC(C)n1c(=O)n(C)c2cnc3cc(F)c(-c4ccc(OCCCN5CCCCC5)nc4)cc3c21 (10 µM),inactive: 0,inactive: 0,inactive: 0,inactive: 0,inactive: 0,inactive: 0,inactive: 0,inactive: 0,0,0,0,0,0,0,0,0,0,0,0,0
NC(=O)c1ccc(N(C(N)=O)c2c(F)cccc2F)nc1-c1ccc(F)cc1F (10 µM),inactive: 0,inactive: 0,inactive: 0,inactive: 0,inactive: 0,inactive: 0,inactive: 0,inactive: 0,0,0,0,0,0,0,0,0,0,0,0,0
CN1CCN(c2cc(-c3ccncc3)c(-c3ccc4ccccc4c3)nn2)CC1 (10 µM),inactive: 0,inactive: 0,inactive: 0,inactive: 0,inactive: 0,inactive: 0,inactive: 0,inactive: 0,0,0,0,0,0,0,0,0,0,0,0,0
O=c1[nH]ccc2nc(-c3ccc(CN4CCC(c5nc(-c6ccccn6)n[nH]5)CC4)cc3)c(-c3ccccc3)cc12 (10 µM),inactive: 0,inactive: 0,inactive: 0,inactive: 0,inactive: 0,inactive: 0,inactive: 0,inactive: 0,0,0,0,0,0,0,0,0,0,0,0,0
CN1CCC(CNc2ccc3ncc(-c4cccc(OC(F)(F)F)c4)n3n2)CC1 (2.5 µM),inactive: 0,inactive: 0,inactive: 0,inactive: 0,inactive: 0,inactive: 0,inactive: 0,inactive: 0,0,0,0,0,0,0,0,0,0,0,0,0
COc1cc2ncnc(Nc3cccc(I)c3)c2cc1OC (2.5 µM),inactive: 0,inactive: 0,inactive: 0,inactive: 0,inactive: 0,inactive: 0,inactive: 0,inactive: 0,0,0,0,0,0,0,0,0,0,0,0,0
Cn1c2cc([S+](C)[O-])sc2c2cnn(Cc3cccc(N)c3)c(=O)c21 (stereo not given) (2.5 µM),inactive: 0,inactive: 0,inactive: 0,inactive: 0,inactive: 0,inactive: 0,inactive: 0,inactive: 0,0,0,0,0,0,0,0,0,0,0,0,0
CN(C)c1ccc(-c2nc3ncc(Cl)c(N4CCN(CC(=O)Nc5nccs5)CC4)c3[nH]2)cc1 (2 µM),inactive: 0,inactive: 0,inactive: 0,inactive: 0,inactive: 0,inactive: 0,inactive: 0,inactive: 0,0,0,0,0,0,0,0,0,0,0,0,0

# Limited to number of time points (BRAF) and number of time points (AURKC), for 2 of the compounds above:
SMILES,number of time points (BRAF),number of time points (AURKC)
N#Cc1ccc(-c2cnc3[nH]cc(NC(=O)c4cccnc4)c3c2)cc1 (10 µM),0,0
O=C(Nc1ccc(Cl)cc1)C1CCCN(C(=O)c2cc(C(F)(F)F)cc(C(F)(F)F)c2)C1 (stereo not given) (10 µM),1,0
